Experimental findings from article PMC4750278 are described below.

Results are given in words; binding and its absence hold for the method and conditions named. Some entries that bind do so weakly or less than the wild type. For part of these data: Where a sequence is shown, tags or fusion partners need not be part of it.

The target in assay [1] is T1, recombinant UVR8 (UV … LOCUS 8) (Arabidopsis), Q9FN03.
T1 chain: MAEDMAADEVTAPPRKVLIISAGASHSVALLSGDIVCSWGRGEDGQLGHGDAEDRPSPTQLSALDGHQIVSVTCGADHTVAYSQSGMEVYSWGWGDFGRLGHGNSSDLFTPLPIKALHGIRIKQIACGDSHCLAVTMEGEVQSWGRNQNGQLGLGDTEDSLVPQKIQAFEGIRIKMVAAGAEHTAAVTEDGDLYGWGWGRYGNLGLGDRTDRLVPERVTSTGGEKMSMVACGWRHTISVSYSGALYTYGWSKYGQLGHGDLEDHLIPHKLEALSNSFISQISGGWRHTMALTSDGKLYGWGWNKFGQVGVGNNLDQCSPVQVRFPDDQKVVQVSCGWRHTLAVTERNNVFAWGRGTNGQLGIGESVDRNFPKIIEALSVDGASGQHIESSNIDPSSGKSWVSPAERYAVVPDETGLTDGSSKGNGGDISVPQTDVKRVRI
Kind of assay: SDS-PAGE of non-boiled samples; purified recombinant UVR8 without UV-B treatment, with or without reconstituted nucleosomes; samples boiled or non-boiled; Coomassie Blue; both purified. The following applies: remark: other sources report otherwise.

Assay [2] has as its target recombinant UVR8 (UV … LOCUS 8) (Arabidopsis) (UniProt Q9FN03). The assay can be described thus: SDS-PAGE of non-boiled samples; purified recombinant UVR8 after UV-B treatment, with or without reconstituted nucleosomes; samples boiled or non-boiled; Coomassie Blue; both purified.
Assay [3] deals with T2, HY5 (ELONGATED HYPOCOTYL 5) fused to the LexA DNA binding domain (Arabidopsis) (UniProt O24646).
T2 sequence: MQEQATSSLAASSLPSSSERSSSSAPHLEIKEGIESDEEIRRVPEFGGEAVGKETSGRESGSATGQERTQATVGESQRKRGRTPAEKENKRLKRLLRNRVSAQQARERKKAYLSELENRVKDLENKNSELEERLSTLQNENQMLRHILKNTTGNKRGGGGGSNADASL
The assay can be described thus: two-hybrid; L40 yeast cells; HY5 fused to the LexA DNA binding domain.

B1: recombinant UVR8 (UV … LOCUS 8), Q9FN03 1-440 (protein)
chain: T1 chain
For the molecule B1, the binding entry in assay [1] is “binds”.

B2: recombinant UVR8 (UV … LOCUS 8) (protein, UniProt Q9FN03 1-440)
chain: T1 chain
For B2, the binding entry in assay [2] is reported as “no binding (condition: after UV-B treatment)”.

B3: UVR8 in the yeast two-hybrid assay (protein, UniProt Q9FN03 1-440)
chain: T1 chain
As to B3, in assay [3], the binding entry is recorded as “no binding”.
